Source: patent US8685992B2, “Histone deacetylase inhibitors based simultaneously on trisubstituted 1H-pyrroles and aromatic and heteroaromatic spacers” (Universidad del País Vasco, priority 2009, dated 2014)

Tested on: Nuclear Extract from HeLa Cells
Assay: HeLa Nuclear Extract HDAC assay
Assay type: biochemical, human
Settings: 50 μM substrate, 30° C., 2 h, read-out: IC50 (nM) of enzyme activity HeLa

## O=C(CCCCCCC(=O)Nc1ccccc1)NO [SAHA, suberoylanilide hydroxamic acid, reference compound]
  IC50: 24.5 nM
